The text below walks through data of ChEMBL document CHEMBL3774321, “Systematic diversification of benzylidene heterocycles yields novel inhibitor scaffolds selective for Dyrk1A, Clk1 and CK2” (Eur J Med Chem, 2016).

Chains of the proteins cited; added tags and fusions are not shown.
UniProt Q9Y463, whole entry: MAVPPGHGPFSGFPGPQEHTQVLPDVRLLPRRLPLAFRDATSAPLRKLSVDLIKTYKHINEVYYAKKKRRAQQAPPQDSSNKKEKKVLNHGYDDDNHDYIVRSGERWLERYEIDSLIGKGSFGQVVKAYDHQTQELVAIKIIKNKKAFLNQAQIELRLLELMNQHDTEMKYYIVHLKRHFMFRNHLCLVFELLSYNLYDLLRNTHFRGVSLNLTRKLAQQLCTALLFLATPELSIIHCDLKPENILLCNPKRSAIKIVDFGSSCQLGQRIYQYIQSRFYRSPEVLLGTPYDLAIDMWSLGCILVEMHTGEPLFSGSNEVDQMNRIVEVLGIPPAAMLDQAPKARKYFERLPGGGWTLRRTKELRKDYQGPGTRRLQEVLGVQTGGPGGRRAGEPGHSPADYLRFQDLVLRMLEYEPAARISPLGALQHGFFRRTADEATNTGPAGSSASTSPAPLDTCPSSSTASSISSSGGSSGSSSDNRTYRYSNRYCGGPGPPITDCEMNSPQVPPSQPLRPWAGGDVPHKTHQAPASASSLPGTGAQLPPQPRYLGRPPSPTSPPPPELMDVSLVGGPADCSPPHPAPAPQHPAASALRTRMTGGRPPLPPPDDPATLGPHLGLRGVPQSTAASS

The target of this assay is Dual specificity tyrosine-phosphorylation-regulated kinase 1B (Homo sapiens, UniProt Q9Y463). Nature of the assay: Inhibition of full length recombinant human GST-tagged DYRK1B expressed in insect cells using KKISGRLSPIMTEQ-NH2 as substrate incubated for 15 mins in presence of [gamma-32P]ATP. The gist of the method: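 Purified recombinant kinase assayed with 100 μM ATP. Values averaged from at least two independent determinations.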

`COc1ccc2c(c1)[nH]c1c(C)nccc12` [HARMINE]: the IC50 (usually the midpoint of a concentration-inhibition curve) worked out at 180 nM.
